# Assay results published in PMC6028960, “The kinetochore proteins CENP-E and CENP-F directly and specifically interact with distinct BUB mitotic checkpoint Ser/Thr kinases” (The Journal of Biological Chemistry, 2018).
# Sequences of proteins named here, by UniProt entry; tags and fusion partners are left off. A change or cut given only in a name is not applied to a line headed by its entry.
# UniProt O43683: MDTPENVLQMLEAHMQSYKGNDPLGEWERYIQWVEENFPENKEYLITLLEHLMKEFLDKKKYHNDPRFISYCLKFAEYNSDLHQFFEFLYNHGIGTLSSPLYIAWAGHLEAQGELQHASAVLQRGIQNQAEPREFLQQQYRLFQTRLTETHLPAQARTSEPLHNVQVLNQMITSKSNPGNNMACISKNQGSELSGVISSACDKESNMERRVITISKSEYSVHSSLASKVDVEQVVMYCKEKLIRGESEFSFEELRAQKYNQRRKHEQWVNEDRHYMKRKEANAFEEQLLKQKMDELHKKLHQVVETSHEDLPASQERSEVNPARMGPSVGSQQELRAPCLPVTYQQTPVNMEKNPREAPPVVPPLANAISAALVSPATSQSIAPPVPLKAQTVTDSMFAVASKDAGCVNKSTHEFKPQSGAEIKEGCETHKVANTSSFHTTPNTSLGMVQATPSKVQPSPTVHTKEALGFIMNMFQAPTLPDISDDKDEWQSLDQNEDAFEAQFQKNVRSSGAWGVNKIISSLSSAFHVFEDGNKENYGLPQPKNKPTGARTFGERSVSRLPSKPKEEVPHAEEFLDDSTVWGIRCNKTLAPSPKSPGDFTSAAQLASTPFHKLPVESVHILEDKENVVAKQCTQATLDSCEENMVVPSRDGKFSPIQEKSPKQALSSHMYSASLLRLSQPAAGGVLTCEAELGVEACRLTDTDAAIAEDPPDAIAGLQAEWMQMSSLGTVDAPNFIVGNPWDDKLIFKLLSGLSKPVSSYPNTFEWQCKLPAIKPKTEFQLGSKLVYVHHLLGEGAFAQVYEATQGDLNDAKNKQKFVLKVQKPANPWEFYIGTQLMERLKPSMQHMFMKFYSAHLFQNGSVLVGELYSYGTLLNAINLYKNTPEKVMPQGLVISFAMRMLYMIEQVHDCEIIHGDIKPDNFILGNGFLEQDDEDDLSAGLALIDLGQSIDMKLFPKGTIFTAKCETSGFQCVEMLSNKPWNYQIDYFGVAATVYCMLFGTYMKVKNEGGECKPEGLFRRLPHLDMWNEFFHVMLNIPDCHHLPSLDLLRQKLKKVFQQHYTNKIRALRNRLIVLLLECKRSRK
# UniProt O60566: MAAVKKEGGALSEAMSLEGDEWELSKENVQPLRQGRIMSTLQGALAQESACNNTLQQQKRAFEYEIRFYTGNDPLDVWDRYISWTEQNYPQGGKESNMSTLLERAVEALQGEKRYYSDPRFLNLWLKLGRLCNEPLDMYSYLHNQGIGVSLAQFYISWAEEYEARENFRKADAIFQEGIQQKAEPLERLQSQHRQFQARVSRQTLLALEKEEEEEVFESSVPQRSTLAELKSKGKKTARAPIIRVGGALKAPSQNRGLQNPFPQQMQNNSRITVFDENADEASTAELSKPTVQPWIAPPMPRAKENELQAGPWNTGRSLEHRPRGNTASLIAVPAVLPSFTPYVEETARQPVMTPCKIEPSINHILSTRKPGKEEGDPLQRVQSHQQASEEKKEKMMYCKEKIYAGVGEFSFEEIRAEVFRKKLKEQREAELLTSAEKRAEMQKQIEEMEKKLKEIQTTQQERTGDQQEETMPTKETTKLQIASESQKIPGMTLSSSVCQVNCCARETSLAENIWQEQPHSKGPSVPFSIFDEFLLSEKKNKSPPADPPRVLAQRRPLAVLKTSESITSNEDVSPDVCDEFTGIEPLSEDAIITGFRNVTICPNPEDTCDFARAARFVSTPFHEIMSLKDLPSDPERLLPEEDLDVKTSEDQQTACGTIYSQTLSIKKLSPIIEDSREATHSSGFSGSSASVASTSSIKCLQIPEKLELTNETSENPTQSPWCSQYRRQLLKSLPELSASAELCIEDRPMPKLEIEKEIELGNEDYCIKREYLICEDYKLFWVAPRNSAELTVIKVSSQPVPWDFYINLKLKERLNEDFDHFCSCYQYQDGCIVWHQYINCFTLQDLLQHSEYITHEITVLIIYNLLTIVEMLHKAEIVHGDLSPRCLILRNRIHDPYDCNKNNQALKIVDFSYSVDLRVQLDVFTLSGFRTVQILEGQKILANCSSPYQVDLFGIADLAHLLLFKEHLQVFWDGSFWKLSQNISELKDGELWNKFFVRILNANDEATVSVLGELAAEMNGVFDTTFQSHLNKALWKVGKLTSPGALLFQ
# No constants are given. Whether binding was seen depends on the method and setting. Some binding calls cover weakened binding; strength is not graded here.
# B1: eGFP-CENP-E^2070-C (domain or fragment, human, UniProt Q02224 2070-2701, looked up)
# chain: RQNHQVKPEKRLLSDGQQHLTESLREKCSRIKELLKRYSEMDDHYECLNRLSLDLEKEIEFQKELSMRVKANLSLPYLQTKHIEKLFTANQRCSMEFHRIMKKLKYVLSYVTKIKEEQHESINKFEMDFIDEVEKQKELLIKIQHLQQDCDVPSRELRDLKLNQNMDLHIEEILKDFSESEFPSIKTEFQQVLSNRKEMTQFLEEWLNTRFDIEKLKNGIQKENDRICQVNNFFNNRIIAIMNESTEFEERSATISKEWEQDLKSLKEKNEKLFKNYQTLKTSLASGAQVNPTTQDNKNPHVTSRATQLTTEKIRELENSLHEAKESAMHKESKIIKMQKELEVTNDIIAKLQAKVHESNKCLEKTKETIQVLQDKVALGAKPYKEEIEDLKMKLVKIDLEKMKNAKEFEKEISATKATVEYQKEVIRLLRENLRRSQQAQDTSVISEHTDPQPSNKPLTCGGGSGIVQNTKALILKSEHIRLEKEISKLKQQNEQLIKQKNELLSNNQHLSNEVKTWKERTLKREAHKQVTCENSPKSPKVTGTASKKKQITPSQCKERNLQDPVPKESPKSCFFDSRSKSLPSPHPVRYFDNSSLGLCPEVQNAGAESVDSQPGPWHASSGKDVPECKTQ
# notes: codon-optimized cDNA; N-terminal PreScission-cleavable His6-eGFP tag from the pLIB-eGFP vector; source: insect cells (baculovirus made in Sf9, Tnao38 infected), purified (HisTrap, Superose 6 SEC); not shown: eGFP, N-terminal, kept
# Tests used:
# [1] = target: BUB1^FL/BUB3 complex (UniProt O43683); test: SEC; analytical SEC; BUB1/BUB3, BUBR1/BUB3, eGFP-CENP-E^2070-C and mCherry-CENP-F^2688-C all combined, each at 6 μM loading concentration; elution also monitored by fluorescence; both purified
# [2] = target: BUB1^FL/BUB3 complex (UniProt O43683); test: SEC; analytical SEC; 4 μM BUB1 or BUBR1 constructs or BUB1/BUB3 or BUBR1/BUB3 complexes mixed with 16 μM CENP-E or CENP-F proteins in 30 μl; 4 °C; Superose 6 5/150 or Superdex 75 5/150; 50 mM Hepes pH 8.0, 100 mM NaCl, 5% glycerol, 0.5 mM TCEP; fractions by SDS-PAGE; both purified
Molecule,binding [1],binding [2]
BUBR1/BUB3 complex (from UniProt O60566 1-1050; O43684 1-328),binds,–
B1,–,"no binding (tested: 16 μM CENP-E construct, 4 μM BUB1/BUB3)"
